Data from paper PMC13381836.
Positions count from the first letter of the chain named. In names and notes the source's numbering stands. No constants are given. Whether binding was seen depends on the method and setting. Binding seen in cells or lysates may run through a third protein. Some entries that bind do so weakly or less than the wild type. Sequences can lack the tags named with a protein. Each block holds one binder with its values, some of them ahead of it.

Target: T1, 6His-MBP-HIM-3CM fusion protein (C. elegans)
T1 sequence: RDSPYGLSQGITKKNKD
Test: pull-down; HTP-1 versions co-expressed with 6His-MBP-HIM-3CM in E. coli; 2 mg total soluble protein incubated with HisPure Cobalt resin 1.5 h at 4 °C; 50 mM Tris-Cl pH 7.4, 200 mM NaCl, washes with 20 mM imidazole, elution with 150 mM imidazole; Coomassie-stained SDS-PAGE, HTP-1 band as a fraction of the 6His-MBP-HIM-3CM band, input against elution

B2: HTP-1 (WT) (protein, UniProt Q20305 1-352)
chain: MAPLETIYDESLNKSADSIDDKKWSKLFPRIVSDPDRSSNFMTRAIYVAFSAVLRNRNILGQEYFTKNYITEKLKCMTLCFRNPRSNQIAQLLRNAGDATKDGFLKEVSLVITNNEGDLEAIEVFSMKFIYFENGGVVARLSTDKNGQEDPHFAKLAQLVYEGGDSVRDQMVTIVRSVQFLCTKVLEPLPEEFTANFRLEYTNDAPSNFRIDGFEDSSTFYTLPDDIQSATIGHLRPGCHAANMECWSMLMSDSYEAELTLKRHLDKVSDRHGFNPVNVLYKSFNSEDSDTSLSQATTESVNDQGGNETSPVDDITESLEKAQMSPIQTRPTTRRGADGSKTRSSPYSRSCK
binding: binds

B3: HTP-1^A139K (protein, UniProt Q20305 1-352)
chain: B2 chain with A139K
binding: binds

B5: HTP-1^(D144K L156K) (protein, UniProt Q20305 1-352)
chain: B2 chain with D144K, L156K
binding: binds

Results, then the binder that gave them:

binding: binds
B1: HTP-1^∆151-162 (protein, UniProt Q20305)
chain: MAPLETIYDESLNKSADSIDDKKWSKLFPRIVSDPDRSSNFMTRAIYVAFSAVLRNRNILGQEYFTKNYITEKLKCMTLCFRNPRSNQIAQLLRNAGDATKDGFLKEVSLVITNNEGDLEAIEVFSMKFIYFENGGVVARLSTDKNGQEDGGDSVRDQMVTIVRSVQFLCTKVLEPLPEEFTANFRLEYTNDAPSNFRIDGFEDSSTFYTLPDDIQSATIGHLRPGCHAANMECWSMLMSDSYEAELTLKRHLDKVSDRHGFNPVNVLYKSFNSEDSDTSLSQATTESVNDQGGNETSPVDDITESLEKAQMSPIQTRPTTRRGADGSKTRSSPYSRSCK

binding: binds
B4: HTP-1^mut7 (protein, UniProt Q20305 1-352)
chain: B2 chain with D226G, A230V, C239H, N243H, E245Q, M249K, L250S
